# From the supplement of paper PMC8728848
# The other results are listed elsewhere or left out.
# B1: CM2 (Cordyceps militaris) (protein)
# chain: MEIAEQNVGKSCAIVNLIPPKEGSNIWTAKQVTIARNLPPNRGTGRHQIDWSFGPVKVTGYVDTTNWEIGVTVSIMGIDLGTVYGNLRDGVVLNVDLFLAKGQVRFYLKNGNEVWVHLSVEIRFDGKFEGDYKIITV
# Legend:
# Assay in all cases: glycan array binding signal (z-score within array); higher = stronger binding
# Settings in all cases: glycan notation: IUPAC condensed, linker removed
# [1] = biological target: Neu5Ac(a2-3)Gal(b1-3)]Neu5Ac(a2-3)Gal(b1-4)]GlcNAc
# In short: (§1)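 The binding signal is a Z-score computed within each array and averaged over linkers. Arrays of the same protein sequence at different concentrations or buffers were also averaged together. Data originate from 3228 arrays in the Consortium for Functional Glycomics database, kept only where the protein sequence was available.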
# [2] = biological target: Neu5Ac(a2-3)Gal(b1-4)Glc
# In short: as §1
# [3] = biological target: Neu5Ac(a2-3)Gal(b1-4)GlcNAc
# In short: as §1
# [4] = biological target: Neu5Ac(a2-3)Gal(b1-4)GlcNAc(b1-2)Man
# In short: as §1
# [5] = biological target: Neu5Ac(a2-3)Gal(b1-4)GlcNAc(b1-2)Man(a1-3)[GlcNAc(b1-4)][Neu5Ac(a2-3)Gal(b1-4)GlcNAc(b1-2)Man(a1-6)]Man(b1-4)GlcNAc(b1-4)GlcNAc
# In short: as §1
# [6] = biological target: Neu5Ac(a2-3)Gal(b1-4)GlcNAc(b1-2)Man(a1-3)[Neu5Ac(a2-3)Gal(b1-4)GlcNAc(b1-2)Man(a1-6)]Man(b1-4)GlcNAc(b1-4)GlcNAc
# In short: as §1
# [7] = biological target: Neu5Ac(a2-3)Gal(b1-4)GlcNAc(b1-2)Man(a1-3)[Neu5Ac(a2-3)Gal(b1-4)GlcNAc(b1-2)Man(a1-6)]Man(b1-4)GlcNAc(b1-4)[Fuc(a1-6)]GlcNAc
# In short: as §1
# [8] = biological target: Neu5Ac(a2-3)Gal(b1-4)GlcNAc(b1-2)Man(a1-3)[Neu5Ac(a2-6)Gal(b1-4)GlcNAc(b1-2)Man(a1-6)]Man(b1-4)GlcNAc(b1-4)GlcNAc
# In short: as §1
# [9] = biological target: Neu5Ac(a2-3)Gal(b1-4)GlcNAc(b1-2)[Neu5Ac(a2-3)Gal(b1-4)GlcNAc(b1-4)]Man(a1-3)[GlcNAc(b1-4)][Neu5Ac(a2-3)Gal(b1-4)GlcNAc(b1-2)[Neu5Ac(a2-3)Gal(b1-4)GlcNAc(b1-6)]Man(a1-6)]Man(b1-4)GlcNAc(b1-4)GlcNAc
# In short: as §1
# [10] = biological target: Neu5Ac(a2-3)Gal(b1-4)GlcNAc(b1-2)[Neu5Ac(a2-3)Gal(b1-4)GlcNAc(b1-4)]Man(a1-3)[GlcNAc(b1-4)][Neu5Ac(a2-3)Gal(b1-4)GlcNAc(b1-4)Man(a1-6)]Man(b1-4)GlcNAc(b1-4)GlcNAc
# In short: as §1
# [11] = biological target: Neu5Ac(a2-3)Gal(b1-4)GlcNAc(b1-2)[Neu5Ac(a2-3)Gal(b1-4)GlcNAc(b1-6)]Man(a1-6)[Neu5Ac(a2-3)Gal(b1-4)GlcNAc(b1-2)Man(a1-3)][GlcNAc(b1-4)]Man(b1-4)GlcNAc(b1-4)GlcNAc
# In short: as §1
# [12] = biological target: Neu5Ac(a2-3)Gal(b1-4)GlcNAc(b1-3)Gal
# In short: as §1
# [13] = biological target: Neu5Ac(a2-3)Gal(b1-4)GlcNAc(b1-3)Gal(b1-3)GlcNAc
# In short: as §1
# [14] = biological target: Neu5Ac(a2-3)Gal(b1-4)GlcNAc(b1-3)Gal(b1-4)GlcNAc
# In short: as §1
# [15] = biological target: Neu5Ac(a2-3)Gal(b1-4)GlcNAc(b1-3)Gal(b1-4)GlcNAc(b1-2)Man(a1-3)[Neu5Ac(a2-3)Gal(b1-4)GlcNAc(b1-3)Gal(b1-4)GlcNAc(b1-2)Man(a1-6)]Man(b1-4)GlcNAc(b1-4)GlcNAc
# In short: as §1
# [16] = biological target: Neu5Ac(a2-3)Gal(b1-4)GlcNAc(b1-3)Gal(b1-4)GlcNAc(b1-3)Gal(b1-4)GlcNAc
# In short: as §1
# [17] = biological target: Neu5Ac(a2-3)Gal(b1-4)GlcNAc(b1-3)Gal(b1-4)GlcNAc(b1-3)Gal(b1-4)GlcNAc(b1-2)Man(a1-3)[Neu5Ac(a2-3)Gal(b1-4)GlcNAc(b1-3)Gal(b1-4)GlcNAc(b1-3)Gal(b1-4)GlcNAc(b1-2)Man(a1-6)]GalNAc
# In short: as §1
# [18] = biological target: Neu5Ac(a2-3)Gal(b1-4)GlcNAc(b1-3)Gal(b1-4)GlcNAc(b1-3)GalNAc
# In short: as §1
# [19] = biological target: Neu5Ac(a2-3)Gal(b1-4)GlcNAc(b1-3)Gal(b1-4)GlcNAc(b1-3)[Neu5Ac(a2-3)Gal(b1-4)GlcNAc(b1-3)Gal(b1-4)GlcNAc(b1-6)]GalNAc
# In short: as §1
# [20] = biological target: Neu5Ac(a2-3)Gal(b1-4)GlcNAc(b1-3)Gal(b1-4)GlcNAc(b1-6)[Gal(b1-3)]GalNAc
# In short: as §1
# [21] = biological target: Neu5Ac(a2-3)Gal(b1-4)GlcNAc(b1-3)Gal(b1-4)[Fuc(a1-3)]GlcNAc
# In short: as §1
# [22] = biological target: Neu5Ac(a2-3)Gal(b1-4)GlcNAc(b1-3)GalNAc
# In short: as §1
# [23] = biological target: Neu5Ac(a2-3)Gal(b1-4)GlcNAc(b1-3)[Neu5Ac(a2-3)Gal(b1-4)GlcNAc(b1-6)]GalNAc
# In short: as §1
binder,measurement,setting,value
B1,glycan array binding signal (z-score),[1],3.98
same,glycan array binding signal (z-score),[2],0.479
same,glycan array binding signal (z-score),[3],0.924
same,glycan array binding signal (z-score),[4],0.955
same,glycan array binding signal (z-score),[5],-0.303
same,glycan array binding signal (z-score),[6],-0.387
same,glycan array binding signal (z-score),[7],0.099
same,glycan array binding signal (z-score),[8],0.37
same,glycan array binding signal (z-score),[9],-0.877
same,glycan array binding signal (z-score),[10],0.058
same,glycan array binding signal (z-score),[11],-0.823
same,glycan array binding signal (z-score),[12],-1.46
same,glycan array binding signal (z-score),[13],-0.152
same,glycan array binding signal (z-score),[14],-1.2
same,glycan array binding signal (z-score),[15],1.55
same,glycan array binding signal (z-score),[16],-0.646
same,glycan array binding signal (z-score),[17],1.78
same,glycan array binding signal (z-score),[18],3.11
same,glycan array binding signal (z-score),[19],0.196
same,glycan array binding signal (z-score),[20],-1.25
same,glycan array binding signal (z-score),[21],0.969
same,glycan array binding signal (z-score),[22],-0.471
same,glycan array binding signal (z-score),[23],1.17

# Taken from the listing (2 entries):
binder,measurement,setting,value
B1,glycan array binding signal (z-score),[9],-0.877
same,glycan array binding signal (z-score),[10],0.058
